Results taken from PubChem BioAssay AID504375 (National Center for Advancing Translational Sciences (NCATS), 2011).
In all, about 1,600 compounds went through this assay and about 25 (2%) were called active. Inconclusive results (about 7%) are left out. Calls come from the whole dose curve; as a rule, active = well fitted inhibition curve with a large enough effect; inconclusive = small, poorly fitted or top-dose-only effect, or effect the other way; inactive = no such curve, though single readings can be large or run the other way. Some of the results follow.

The chains behind the UniProt entries cited, without tags or fusion partners.
UniProt Q01196, whole entry, looked up: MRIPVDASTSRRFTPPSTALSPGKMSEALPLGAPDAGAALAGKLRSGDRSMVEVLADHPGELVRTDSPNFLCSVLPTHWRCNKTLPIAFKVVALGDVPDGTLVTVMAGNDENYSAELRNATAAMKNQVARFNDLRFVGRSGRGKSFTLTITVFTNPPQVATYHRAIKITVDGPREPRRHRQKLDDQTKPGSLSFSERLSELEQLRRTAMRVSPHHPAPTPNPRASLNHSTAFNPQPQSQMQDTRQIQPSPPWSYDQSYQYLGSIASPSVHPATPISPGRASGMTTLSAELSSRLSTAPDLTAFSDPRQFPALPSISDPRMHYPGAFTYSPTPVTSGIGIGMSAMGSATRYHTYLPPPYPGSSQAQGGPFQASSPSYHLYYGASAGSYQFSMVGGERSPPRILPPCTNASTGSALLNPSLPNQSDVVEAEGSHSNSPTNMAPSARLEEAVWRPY
UniProt Q13951, whole entry, looked up: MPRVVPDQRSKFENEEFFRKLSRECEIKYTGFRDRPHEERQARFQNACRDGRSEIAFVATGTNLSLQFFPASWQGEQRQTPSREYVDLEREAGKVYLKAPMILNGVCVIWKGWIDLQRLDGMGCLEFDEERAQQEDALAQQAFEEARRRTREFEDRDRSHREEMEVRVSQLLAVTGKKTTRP

Target: Runt-related transcription factor 1 (Homo sapiens) + Core-binding factor subunit beta (Homo sapiens) (UniProt Q01196+Q13951)
Experiment: qHTS Assay for Compounds Blocking the Interaction Between CBF-beta and RUNX1 for the Treatment of Acute Myeloid Leukemia: Hit Validation with Orthogonal Assay
Settings: CBFbeta-RUNX1 binding orthogonal assay, biochemical; series mostly up to 41 µM; activity change, negative = inhibition: at the top concentration
In short: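 This is an orthogonal TR-FRET assay. His6-CBF-beta and biotin-RUNX1 (30 nM each) were preincubated with compound for 30 min, then Tb-anti-His antibody (0.44 ng) and streptavidin-XL665 (5 nM) were added. The signal was read after 90 min.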
% is set by controls: 0 for no effect and ±100 for the full control effect.

Row | SMILES | activity change, negative = inhibition
1 | O=C1COc2ccc(C(=O)CSc3ccccc3C(=O)O)cc2N1 | inactive: 13.9%
2 | CCOC(=O)c1cn[nH]c1NC(=S)Nc1ccc(OC)cc1 | inactive: -10.9%
3 | COc1cccc(/C=C2\SC(=S)N(C(C(=O)O)c3ccccc3)C2=O)c1OC (centres undefined) | inactive: 0.232%
4 | CC12CCC(C/C1=N\OC(=O)c1c(F)cccc1F)C2(C)C (centres undefined) | inactive: -4.22%
5 | COc1ccc(-c2nnc(SCC(=O)N/N=C/c3ccccc3C(=O)O)n2-c2ccc(Cl)cc2)cc1 | inactive: -15.6%
6 | O=C(Nc1ccc2ccccc2c1)c1cccc(F)c1 | inactive: 7.92%
7 | CCNC(=O)Oc1ccc[nH]c1=O | inactive: -4.86%
8 | Cc1ccc(/C=N/N2CCN(c3ccccn3)CC2)o1 | inactive: 6.95%
9 | O=C(NNC(=S)NC1CC2C=CC1C2)c1ccncc1 (centres undefined) | inactive: -0.795%
10 | O=C(CSc1nc2ccccc2n1Cc1ccccc1Cl)N/N=C/c1ccccc1C(=O)O | inactive: -14.6%
11 | CCOC(=O)[C@H](CCc1ccccc1)N[C@@H](C)C(=O)N1[C@H](C(=O)O)C[C@H]2CCCC[C@@H]21 | inactive: -2.26% [at 82.4 µM]
12 | O=C(Oc1c(-c2ccccc2)c(=O)n2c3c(cccc13)CC2)c1ccc(Cl)cc1 | inactive: -14.9%
13 | Cn1nccc1NS(=O)(=O)c1ccc(C(C)(C)C)cc1 | inactive: -10.9%
14 | CC(/C=N/n1c(-c2ccccn2)n[nH]c1=S)=C\c1ccccc1 | inactive: -4.6%
15 | Cc1nn(C)cc1/C=N/NC(=O)c1ccco1 | inactive: 7.02%
16 | COc1ccc(C(=O)O)nc1C | inactive: -10.2%
17 | CCn1c(SCC(=O)N/N=C/c2ccncc2)nc2ccccc21 | inactive: 1.93%
18 | Cc1sc2nc(COC(=O)c3ccc(Cl)c(N)c3)[nH]c(=O)c2c1C | inactive: -1.95%
19 | CN(C)c1cc(-c2ccc(Br)cc2)oc(=O)c1Cl | inactive: 20.4%
20 | Cc1ccc(N=CC2=C(O)CC(c3ccccc3Cl)CC2=O)cc1 (centres undefined) | inactive: -8.6%

Row | SMILES | activity change, negative = inhibition
21 | CN1c2ccccc2C(=O)/C(=C\Nc2ccc(F)cc2F)S1(=O)=O | inactive: 1.93%
22 | Cc1oc(S(=O)(=O)N2CCCC2)cc1C(=O)Nc1ccc(F)cc1 | inactive: 0.93%
23 | CCOC(=O)N1CCC(NS(=O)(=O)c2ccc(C)cc2)CC1 | inactive: -13.3%
24 | O=S(=O)(c1ccc(F)cc1F)N1CCCN(c2ccc(C(F)(F)F)cn2)CC1 | inactive: 5.71%
25 | O=C(O)CCNC(=O)CCCn1nnc2ccccc2c1=O | inactive: -4.66%
26 | C/C(=N/NC(=O)CNC(=O)Cc1ccccc1)c1ccc(Cl)cc1 | inactive: -8.37%
27 | CC(C)N(CCn1cnc2c([nH]c3ccccc32)c1=O)C(C)C | inactive: 7.83%
28 | S=C(N/N=C/c1cccc2ccccc12)Nc1cccc(Cl)c1 | inactive: -11.2%
29 | CCn1cc(C(c2ccccc2)C(C(C)=O)[N+](=O)[O-])c2ccccc21 (centres undefined) | inactive: 13.1%
30 | [O-]/[N+](=C\C=C\c1ccccc1)c1ccccc1 | inactive: 10%
31 | O=C1CCCN1CCCNC(=S)Nc1ccccc1 | inactive: 4.48%
32 | CCCOc1ccc(-c2nc(-c3ccc([N+](=O)[O-])cc3)cs2)cc1 | inactive: -13.2%
33 | CCOc1nc2c(c(-c3cccs3)c1C#N)Cc1ccccc1-2 | inactive: -7.12%
34 | CCOc1ccc(NC(=O)CSc2ccc(-c3ccccn3)nn2)cc1 | inactive: 11% [at 82.4 µM]
35 | Nc1nc(Nc2ccccc2)nc(NCCO)c1[N+](=O)[O-] | inactive: 42.1%
36 | COc1ccccc1Cc1nc(-c2cccnc2)no1 | inactive: 7.3%
37 | O=C(O)COCC(=O)N1CCN(C2c3ccccc3-c3ccccc32)CC1 | inactive: 4.03%
38 | CCOc1ccc(N2C(=O)S/C(=C\c3cc(OC)c(OC)c(OC)c3)C2=O)cc1 | inactive: 15%
39 | N#CC(C(=O)c1ccccc1Cl)=C1SCCCS1 | inactive: 21.3%
40 | COc1c(NC(C)=O)c2ccccc2c2ccccc12 | inactive: 9.47%

Arranged by SMILES length (high to low): some entries from above
Row | SMILES | activity change, negative = inhibition
22 | Cc1oc(S(=O)(=O)N2CCCC2)cc1C(=O)Nc1ccc(F)cc1 | inactive: 0.93%
28 | S=C(N/N=C/c1cccc2ccccc12)Nc1cccc(Cl)c1 | inactive: -11.2%
25 | O=C(O)CCNC(=O)CCCn1nnc2ccccc2c1=O | inactive: -4.66%
31 | O=C1CCCN1CCCNC(=S)Nc1ccccc1 | inactive: 4.48%

Continuation.

Row | SMILES | activity change, negative = inhibition
41 | O=C1CCN(S(=O)(=O)c2ccc(Cl)cc2)CCN1 | inactive: 0.514%
42 | CCOC(=O)C(=CNc1cccnc1Oc1ccc(C)c2c1CCC2)C(=O)OCC | inactive: -4.69%
43 | CCC(=O)N1N=C(c2ccc(C)cc2)CC1c1ccco1 (centres undefined) | inactive: -3.02%
44 | COc1ccc(-c2c[n+]3c(n2-c2ccc(C)cc2)CCCCC3)cc1 | inactive: -8.18%
45 | Cc1ccc(C)c(C(=O)CCC(=O)O)c1 | inactive: 10.9%
46 | O=C(Nc1ccc(Nc2ccncc2)cc1)c1ccc(Nc2ccnc3ccc([N+](=O)[O-])cc23)cc1 | inactive: -7.13%
47 | c1ccc(-c2nnc(N3CCN(c4ccccc4)CC3)nc2-c2ccccc2)cc1 | inactive: -7.99%
48 | Cc1ccccc1NC(=S)Nc1ccccn1 | inactive: -11.9%
49 | CCc1c(-c2ccccc2)[n+](=O)c2c(n1[O-])CCC2 | inactive: 9.26%
50 | CC(C)(C)c1cc(NCc2ccccn2)n2ncc(-c3ccc(Cl)cc3)c2n1 | inactive: -2.69%
51 | CCC(C)NC(=O)CC(C)C (centres undefined) | inactive: 0.673%
52 | O=C(Oc1cc(=O)oc2c1c(=O)n1c3c(cccc23)CC1)c1ccc(F)cc1 | inactive: 4.17%
53 | O=C(c1ccc(Cn2cc(Cl)c([N+](=O)[O-])n2)cc1)N1CCN(Cc2ccccc2)CC1 | inactive: 31.6%
54 | c1ccc(-n2ncc3cccnc32)cc1 | inactive: -6.47%
55 | Nc1ccc(C(=O)Nc2ccc(Nc3ccncc3)cc2)cc1 | inactive: 4.77%
56 | COc1cccc(N/C(=N/C(=S)Nc2ccc(C)cc2C)Nc2nc(C)cc(C)n2)c1 | inactive: -7.98%
57 | Cc1nn2c(NCCCN(C)C)c3c(nc2c1-c1ccccc1)CCCC3 | inactive: 7.44%
58 | CCCN(CCC)CC(=O)N1CC(=O)Nc2ccccc21 | inactive: 4.55%
59 | COC(=O)c1sccc1NC(=O)CC1C(=O)NCCN1C(=O)c1ccc(C)c(C)c1 (centres undefined) | inactive: 6.69%
